Results reported in patent US20240044859A1, “METHOD FOR ASSESSING AROMA COMPONENT AND METHOD FOR PREPARING FLAVOR COMPOSITION” (Takasago International Corporation, priority 2020, published 2024).

Assay: Retronasal aroma measured by PTR-TOFMS after consuming a flavored jelly sample (sugar/gelatin/water base), power function fit C=a*t^-b
Format: in vivo, human
Conditions: Reference product 2 or 3 at 0.3% in jelly base, 5° C., 10 g consumed; averaged over multiple measurements

Structure (SMILES) | a (area under the curve per unit amount (ppm) for the first breath) | b (coefficient representing the degree of decay of the area under the curve)
COc1ccc(C=O)cc1 [p-Anisaldehyde] | 0.1 | 0.3
C=C1CCC2CC1C2(C)C (stereo not drawn) [β-pinene] | 1.9 | 1.8
CC(=O)c1ccccc1N [o-Aminoacetophenone] | 0.02 | 0.4
C=CCc1ccc(OC(C)=O)c(OC)c1 [Eugenol acetate] | 0.01 | 0.8
CCCCC/C=C/C=O [Trans-2-octenal] | 0.7 | 1.4
CC(=O)Oc1ccc(C)cc1 [p-Tolyl acetate] | 0.8 | 1.4

Assay: Retronasal aroma measured by PTR-TOFMS after drinking a flavored beverage sample (ion-exchanged water base), power function fit C=a*t^-b
Format: in vivo, human
Conditions: Reference product 1 at 0.1% in ion-exchanged water, 5° C., 10 mL drunk; averaged over multiple measurements

Structure (SMILES) | a (area under the curve per unit amount (ppm) for the first breath) | b (coefficient representing the degree of decay of the area under the curve)
Cc1ccc(C(C)C)cc1 [p-Cymene] | 2.9 | 2.5
CC1=C(O)C(=O)CC1 [2-Hydroxy-3-methyl-2-cyclopentenone] | 0.02 | 0.9
C=CCOC(=O)CCCCC [Allyl hexanoate] | 2.5 | 2.9
O=CCc1ccccc1 [Phenylacetaldehyde] | 0.3 | 1.0
CCC=CC=CC=O [2,4-Heptadienal] | 1.1 | 2.9
c1ccc2scnc2c1 [Benzothiazole] | 0.8 | 0.7
